The test concerns the target full-length FLAG-HOIP (UniProt Q924T7). The test is described as follows: co-IP; A20.2J HOIP−/− cells reconstituted with full-length FLAG-HOIP, stimulated with α-IgG for the indicated times; modified RIPA lysate; IP with agarose-conjugated α-FLAG, immunoblot for BCL10; interaction called BCR activation-dependent. (In general: Immunoblotting shows a protein as a band on a membrane.)

By UniProt entry, the sequences of proteins in these tests, tags left out.
UniProt Q924T7: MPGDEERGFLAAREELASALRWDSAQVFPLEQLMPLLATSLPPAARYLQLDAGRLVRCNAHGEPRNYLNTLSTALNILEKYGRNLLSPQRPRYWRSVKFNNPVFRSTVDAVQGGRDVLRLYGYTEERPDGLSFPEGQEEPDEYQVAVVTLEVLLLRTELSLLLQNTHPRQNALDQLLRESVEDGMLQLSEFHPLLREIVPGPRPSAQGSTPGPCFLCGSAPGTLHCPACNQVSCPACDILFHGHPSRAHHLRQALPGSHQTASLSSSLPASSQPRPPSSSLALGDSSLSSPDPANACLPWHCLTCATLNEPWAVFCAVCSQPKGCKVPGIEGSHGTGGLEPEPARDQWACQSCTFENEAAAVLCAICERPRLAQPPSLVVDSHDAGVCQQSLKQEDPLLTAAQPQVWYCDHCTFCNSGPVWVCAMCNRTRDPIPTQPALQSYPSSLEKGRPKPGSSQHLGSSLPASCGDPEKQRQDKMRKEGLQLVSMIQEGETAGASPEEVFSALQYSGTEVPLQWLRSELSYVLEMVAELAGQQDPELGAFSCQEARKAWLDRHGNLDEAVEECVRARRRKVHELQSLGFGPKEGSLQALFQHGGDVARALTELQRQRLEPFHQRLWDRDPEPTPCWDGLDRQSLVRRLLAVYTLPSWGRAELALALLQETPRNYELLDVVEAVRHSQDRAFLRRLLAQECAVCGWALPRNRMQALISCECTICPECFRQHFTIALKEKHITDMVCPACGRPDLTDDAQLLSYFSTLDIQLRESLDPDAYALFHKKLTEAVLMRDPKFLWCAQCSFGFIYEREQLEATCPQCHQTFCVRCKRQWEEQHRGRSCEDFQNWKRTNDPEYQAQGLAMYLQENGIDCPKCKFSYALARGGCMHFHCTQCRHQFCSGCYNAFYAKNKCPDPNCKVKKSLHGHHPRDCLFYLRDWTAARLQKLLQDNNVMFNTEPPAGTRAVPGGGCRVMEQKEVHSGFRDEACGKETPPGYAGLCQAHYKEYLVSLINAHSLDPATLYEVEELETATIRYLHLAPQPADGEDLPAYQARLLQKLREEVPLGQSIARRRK

These are yes or no findings as the source states them, for the method shown. Binding seen in cells or lysates may run through a third protein. Some binding calls cover weakened binding; strength is not graded here.

These results are taken from publication PMC4501846.

B1: BCL10 (protein, UniProt Q9Z0H7 1-233)
chain: MEAPAPSLTEEDLTEVKKDALENLRVYLCEKIIAERHFDHLRAKKILSREDTEEISCRTSSRKRAGKLLDYLQENPRGLDTLVESIRREKTQSFLIQKITDEVLKLRNIKLEHLKGLKCSSCEPFAAGATNNLSRCNSDESNLSEKQRASTVMYHPEGESSTAPFFSMASSLNLPVLEVGRTENSSFSSATLPRPGDPGAPPLPPDLRLEEGGSCGNSSEMFLPLRSRALSRQ
Regarding B1, the binding entry was “binds”.
